According to patent publication US20020086278A1, “CHROMOGENIC MEDIA CONTAINING BLOOD OR HEMIN” (priority 1999, published 2002):
At least one structure is not confirmed: it was looked up by name or label, or the drawing left a doubt.

Columns and labels:
Assay in all cases: Example 1: growth and colony color on plates surface-spread with chromogen
Assay type in all cases: cell-based
Escherichia coli 25922 = details: E. coli 25922
[1] = tested on: Staphylococcus aureus 25923; details: S. aureus 25923
[2] = tested on: Streptococcus pneumoniae 6303; details: S. pneu: 6303
S. epidermidis 12228 = details: S. epi 12228

With CC(=O)N[C@H]1[C@H](Oc2c[nH]c3ccc(Br)c(Cl)c23)O[C@H](CO)[C@H](O)[C@@H]1O [X-Acglmn, 5-Br-4-Cl-3-indolyl-N-Acetyl-β-D-galactosaminide] the Growth (Escherichia coli 25922; Choc II) was 4+, the Growth (Escherichia coli 25922; TSA II 5SB) was 4+ and the Growth (Escherichia coli 25922; TSA Plain) was 4+. For the same compound, the Growth ([1]; Choc II) was 4+, the Growth ([1]; TSA II 5SB) was 4+ and the Growth ([1]; TSA Plain) was 4+. For the same compound, the Growth ([2]; Choc II) was 4+=, the Growth ([2]; TSA II 5SB) was 4+= and the Growth ([2]; TSA Plain) was 1+=. For the same compound, the Growth (S. epidermidis 12228; Choc II) was 4+, the Growth (S. epidermidis 12228; TSA II 5SB) was 4+ and the Growth (S. epidermidis 12228; TSA Plain) was 4+.
